In patent US6812243B2, “Indole derivatives and their use for the treatment of malignant and other diseases based on pathological proliferation” (Zentaris AG, priority 1998, dated 2004):

melting point: 223 to 224 °C
SMILES: CC(=O)Oc1ccc2[nH]c(C(=O)c3cc4ccccc4[nH]3)cc2c1 [Example 53]
